In publication doi:10.1101/2025.03.24.644882:
Where two headings read alike, the source gives them in different places. These are yes or no findings as the source states them, for the method shown. Binding seen in cells or lysates may run through a third protein. Some binding calls cover weakened binding; strength is not graded here. For some assays here: Tags and fused reporters may be left off the sequences shown.

Protein sequences, listed by entry. Tags and fused reporters are not part of them. Residues count along the entry.
UniProt Q68DV7, residues 24-783: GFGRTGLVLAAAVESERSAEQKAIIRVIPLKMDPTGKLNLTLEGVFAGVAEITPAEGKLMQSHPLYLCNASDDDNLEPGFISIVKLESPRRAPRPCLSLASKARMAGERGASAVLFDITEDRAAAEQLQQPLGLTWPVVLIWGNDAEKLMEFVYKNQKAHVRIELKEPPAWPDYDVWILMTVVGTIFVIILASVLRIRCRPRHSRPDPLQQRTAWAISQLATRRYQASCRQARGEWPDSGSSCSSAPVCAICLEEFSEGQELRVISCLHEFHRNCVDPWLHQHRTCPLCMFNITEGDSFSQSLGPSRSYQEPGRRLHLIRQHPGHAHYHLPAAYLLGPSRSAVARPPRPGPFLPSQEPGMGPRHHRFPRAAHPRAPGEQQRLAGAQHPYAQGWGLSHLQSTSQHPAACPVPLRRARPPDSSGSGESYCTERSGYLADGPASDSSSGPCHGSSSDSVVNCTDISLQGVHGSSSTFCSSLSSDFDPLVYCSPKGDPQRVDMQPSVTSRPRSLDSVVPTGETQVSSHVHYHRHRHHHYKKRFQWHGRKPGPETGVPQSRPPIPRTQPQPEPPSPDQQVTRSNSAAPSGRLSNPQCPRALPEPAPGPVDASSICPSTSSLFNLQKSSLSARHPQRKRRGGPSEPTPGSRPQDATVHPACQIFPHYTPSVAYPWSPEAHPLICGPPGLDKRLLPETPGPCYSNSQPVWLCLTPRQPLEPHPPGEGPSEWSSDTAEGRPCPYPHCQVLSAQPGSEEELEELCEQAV
UniProt P49674: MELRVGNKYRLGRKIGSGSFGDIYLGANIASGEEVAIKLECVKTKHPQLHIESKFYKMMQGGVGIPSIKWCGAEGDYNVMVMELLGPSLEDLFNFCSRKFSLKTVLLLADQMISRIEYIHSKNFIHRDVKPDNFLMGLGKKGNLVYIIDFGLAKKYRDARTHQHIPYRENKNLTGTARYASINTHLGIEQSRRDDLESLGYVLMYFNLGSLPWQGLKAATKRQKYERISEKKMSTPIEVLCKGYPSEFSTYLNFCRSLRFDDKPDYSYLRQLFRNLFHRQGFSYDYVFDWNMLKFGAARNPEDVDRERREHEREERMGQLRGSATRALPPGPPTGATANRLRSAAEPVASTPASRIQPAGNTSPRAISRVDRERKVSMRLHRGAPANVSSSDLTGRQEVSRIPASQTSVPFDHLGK

T1: N-terminally HA-tagged PRICKLE3 (human) (UniProt O43900)
T1 sequence: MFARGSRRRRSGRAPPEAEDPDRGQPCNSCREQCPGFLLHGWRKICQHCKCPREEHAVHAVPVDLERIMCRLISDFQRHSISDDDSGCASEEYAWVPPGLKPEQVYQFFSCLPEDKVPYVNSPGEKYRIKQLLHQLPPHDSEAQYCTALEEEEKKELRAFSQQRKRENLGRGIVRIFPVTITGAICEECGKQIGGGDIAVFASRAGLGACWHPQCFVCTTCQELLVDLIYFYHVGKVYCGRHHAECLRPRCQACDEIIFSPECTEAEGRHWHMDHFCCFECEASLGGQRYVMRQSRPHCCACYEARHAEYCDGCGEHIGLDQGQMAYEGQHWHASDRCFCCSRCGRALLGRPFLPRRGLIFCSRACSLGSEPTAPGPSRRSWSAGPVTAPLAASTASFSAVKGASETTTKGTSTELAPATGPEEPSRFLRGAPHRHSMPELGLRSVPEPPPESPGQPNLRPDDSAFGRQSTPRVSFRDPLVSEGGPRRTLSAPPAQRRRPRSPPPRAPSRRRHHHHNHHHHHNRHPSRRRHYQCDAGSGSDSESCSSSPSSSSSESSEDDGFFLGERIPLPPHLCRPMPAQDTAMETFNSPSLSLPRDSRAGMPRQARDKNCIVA

T2: N-terminally HA-tagged PRICKLE1 (human) (UniProt Q96MT3)
T2 sequence: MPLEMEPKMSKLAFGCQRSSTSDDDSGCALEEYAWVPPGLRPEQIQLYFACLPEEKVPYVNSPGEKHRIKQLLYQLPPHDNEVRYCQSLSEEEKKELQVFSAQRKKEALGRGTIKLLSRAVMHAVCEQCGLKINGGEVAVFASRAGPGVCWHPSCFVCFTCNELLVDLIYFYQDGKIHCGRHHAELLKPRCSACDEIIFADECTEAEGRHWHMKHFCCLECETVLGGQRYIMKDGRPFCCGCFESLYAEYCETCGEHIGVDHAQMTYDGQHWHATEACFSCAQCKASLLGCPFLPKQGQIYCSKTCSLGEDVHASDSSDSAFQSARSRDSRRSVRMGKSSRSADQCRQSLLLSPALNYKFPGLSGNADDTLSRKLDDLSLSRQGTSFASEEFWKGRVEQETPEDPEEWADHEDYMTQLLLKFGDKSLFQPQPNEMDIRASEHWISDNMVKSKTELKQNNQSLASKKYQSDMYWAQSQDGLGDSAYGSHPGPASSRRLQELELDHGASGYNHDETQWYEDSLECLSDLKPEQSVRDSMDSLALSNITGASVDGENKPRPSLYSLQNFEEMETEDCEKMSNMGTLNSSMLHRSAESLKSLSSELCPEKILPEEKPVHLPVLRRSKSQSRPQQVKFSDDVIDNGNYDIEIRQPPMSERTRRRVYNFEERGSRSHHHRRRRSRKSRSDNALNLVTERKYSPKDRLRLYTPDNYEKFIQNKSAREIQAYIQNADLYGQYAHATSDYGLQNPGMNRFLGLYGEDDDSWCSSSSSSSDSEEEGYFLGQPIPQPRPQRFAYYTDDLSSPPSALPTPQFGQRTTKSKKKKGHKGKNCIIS


Columns and labels:
Experiment in all cases: co-IP
[1] = target: T1, N-terminally HA-tagged PRICKLE3 (human)
[2] = target: RNF43-FLAG (E3 ubiquitin-protein ligase Ring finger protein 43, FLAG-tagged, wild type) (UniProt Q68DV7)
[3] = target: T1, N-terminally HA-tagged PRICKLE3 (human); remark: listed apart in the source
[4] = target: T2, N-terminally HA-tagged PRICKLE1 (human)

Molecule	binding [1]	binding [2]	binding [3]	binding [4]
RNF43-FLAG (E3 ubiquitin-protein ligase Ring finger protein 43, FLAG-tagged, wild type) (from UniProt Q68DV7 24-783) (enzyme)	binds	–	–	–
Casein kinase 1 ε (CK1ε), endogenous (from UniProt P49674 1-416) (enzyme)	binds	binds	–	–
VANGL1 (Van Gogh-like 1), endogenous (protein, UniProt Q8TAA9 1-524) MDTESTYSGYSYYSSHSKKSHRQGERTRERHKSPRNKDGRGSEKSVTIQPPTGEPLLGNDSTRTEEVQDDNWGETTTAITGTSEHSISQEDIARISKDMEDSVGLDCKRYLGLTVASFLGLLVFLTPIAFILLPPILWRDELEPCGTICEGLFISMAFKLLILLIGTWALFFRKRRADMPRVFVFRALLLVLIFLFVVSYWLFYGVRILDSRDRNYQGIVQYAVSLVDALLFIHYLAIVLLELRQLQPMFTLQVVRSTDGESRFYSLGHLSIQRAALVVLENYYKDFTIYNPNLLTASKFRAAKHMAGLKVYNVDGPSNNATGQSRAMIAAAARRRDSSHNELYYEEAEHERRVKKRKARLVVAVEEAFIHIQRLQAEEQQKAPGEVMDPREAAQAIFPSMARALQKYLRITRQQNYHSMESILQHLAFCITNGMTPKAFLERYLSAGPTLQYDKDRWLSTQWRLVSDEAVTNGLRDGIVFVLKCLDFSLVVNVKKIPFIILSEEFIDPKSHKFVLRLQSETSV	–	–	binds	binds
